Measured values from patent US9066959B2, “Ficus extracts having angiogenesis inhibiting activity and methods of isolating and using the same” (BOARD OF SUPERVISORS OF LOUISIANA STATE UNIVERSITY AND …, priority 2008, dated 2015).
At least one compound was matched to its structure with a doubt left.

Tested on: human placental vein discs (neovessel growth)
Assay: human placental vein angiogenesis assay (fibrin-thrombin clot, Angiogenic Index and % invasion)
Format: cell-based
Details: screened by procedure of Example 5, day 14; result in words

C[C@@H]1O[C@@H](OC[C@H]2O[C@@H](Oc3c(-c4ccc(O)c(O)c4)oc4cc(O)cc(O)c4c3=O)[C@H](O)[C@@H](O)[C@@H]2O)[C@H](O)[C@H](O)[C@H]1O [rutin]
angiogenesis inhibiting activity: does not exhibit angiogenesis inhibiting activity
